Some of the results follow. Small differences around the control level are noise.
Compound: CN[C@@H]1C[C@H]2O[C@@](C)([C@@H]1OC)n1c3ccccc3c3c4c(c5c6ccccc6n2c5c31)C(=O)NC4 [staurosporine]
Assay: log2 fold change of tryptic peptide abundance, ligand vs vehicle (limited proteolysis) (log2 ratio); higher = more trypsin-susceptible (destabilized)
Conditions: ligand concentration: 20 uM; sample: mouse liver crude lysate; replicate design: treated separately

The chains behind the UniProt entries cited, without tags or fusion partners. Where a name states a change or a piece, a line headed by the entry shows the natural chain unless it says otherwise.
UniProt Q8VEF1, whole entry: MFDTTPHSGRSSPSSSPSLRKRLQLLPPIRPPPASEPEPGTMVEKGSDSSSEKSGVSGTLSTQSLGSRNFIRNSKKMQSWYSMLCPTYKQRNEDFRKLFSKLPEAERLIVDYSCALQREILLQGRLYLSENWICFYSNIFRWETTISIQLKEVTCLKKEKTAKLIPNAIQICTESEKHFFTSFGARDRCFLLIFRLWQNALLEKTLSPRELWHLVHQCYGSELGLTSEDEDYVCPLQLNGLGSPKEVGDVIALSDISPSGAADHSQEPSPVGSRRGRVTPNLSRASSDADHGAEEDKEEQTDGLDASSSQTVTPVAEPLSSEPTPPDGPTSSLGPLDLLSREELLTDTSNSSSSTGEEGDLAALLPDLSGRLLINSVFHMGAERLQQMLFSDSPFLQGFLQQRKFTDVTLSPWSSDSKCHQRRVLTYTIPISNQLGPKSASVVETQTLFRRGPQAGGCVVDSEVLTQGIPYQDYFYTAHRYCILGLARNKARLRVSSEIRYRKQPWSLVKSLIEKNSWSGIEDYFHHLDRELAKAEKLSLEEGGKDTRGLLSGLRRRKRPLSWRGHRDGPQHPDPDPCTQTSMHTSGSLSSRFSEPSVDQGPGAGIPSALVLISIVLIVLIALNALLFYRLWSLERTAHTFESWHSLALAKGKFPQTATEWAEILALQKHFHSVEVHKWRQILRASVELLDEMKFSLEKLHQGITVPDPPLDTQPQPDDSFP
UniProt Q8VCN9: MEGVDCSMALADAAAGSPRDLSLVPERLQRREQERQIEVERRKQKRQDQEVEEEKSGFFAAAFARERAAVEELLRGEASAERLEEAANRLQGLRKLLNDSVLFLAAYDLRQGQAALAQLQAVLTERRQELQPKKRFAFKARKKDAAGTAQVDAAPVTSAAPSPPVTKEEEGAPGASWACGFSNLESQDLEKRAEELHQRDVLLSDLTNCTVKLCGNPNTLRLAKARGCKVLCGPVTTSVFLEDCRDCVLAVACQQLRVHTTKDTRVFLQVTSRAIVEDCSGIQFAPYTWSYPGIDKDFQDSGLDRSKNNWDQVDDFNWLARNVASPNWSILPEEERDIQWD
UniProt Q8VC66: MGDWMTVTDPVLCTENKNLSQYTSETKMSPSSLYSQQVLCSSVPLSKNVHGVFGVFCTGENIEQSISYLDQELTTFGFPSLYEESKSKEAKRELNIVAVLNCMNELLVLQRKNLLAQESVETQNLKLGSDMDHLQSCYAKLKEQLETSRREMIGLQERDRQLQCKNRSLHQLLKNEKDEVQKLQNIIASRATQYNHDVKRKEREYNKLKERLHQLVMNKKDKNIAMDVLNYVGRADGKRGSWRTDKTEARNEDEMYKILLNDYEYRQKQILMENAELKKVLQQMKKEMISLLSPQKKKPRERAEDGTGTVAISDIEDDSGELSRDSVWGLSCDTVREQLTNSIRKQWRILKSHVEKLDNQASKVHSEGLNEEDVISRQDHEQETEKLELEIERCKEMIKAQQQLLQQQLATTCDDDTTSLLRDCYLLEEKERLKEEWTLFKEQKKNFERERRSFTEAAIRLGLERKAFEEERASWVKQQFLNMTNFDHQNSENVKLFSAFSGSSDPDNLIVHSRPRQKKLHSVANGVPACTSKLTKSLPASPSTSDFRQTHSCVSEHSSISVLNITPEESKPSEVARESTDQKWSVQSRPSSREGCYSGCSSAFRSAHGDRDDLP
UniProt Q8VEA4: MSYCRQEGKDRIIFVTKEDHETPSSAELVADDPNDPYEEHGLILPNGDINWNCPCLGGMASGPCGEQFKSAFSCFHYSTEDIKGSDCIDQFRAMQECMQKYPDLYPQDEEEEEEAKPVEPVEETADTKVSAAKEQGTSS
UniProt Q8VBZ3: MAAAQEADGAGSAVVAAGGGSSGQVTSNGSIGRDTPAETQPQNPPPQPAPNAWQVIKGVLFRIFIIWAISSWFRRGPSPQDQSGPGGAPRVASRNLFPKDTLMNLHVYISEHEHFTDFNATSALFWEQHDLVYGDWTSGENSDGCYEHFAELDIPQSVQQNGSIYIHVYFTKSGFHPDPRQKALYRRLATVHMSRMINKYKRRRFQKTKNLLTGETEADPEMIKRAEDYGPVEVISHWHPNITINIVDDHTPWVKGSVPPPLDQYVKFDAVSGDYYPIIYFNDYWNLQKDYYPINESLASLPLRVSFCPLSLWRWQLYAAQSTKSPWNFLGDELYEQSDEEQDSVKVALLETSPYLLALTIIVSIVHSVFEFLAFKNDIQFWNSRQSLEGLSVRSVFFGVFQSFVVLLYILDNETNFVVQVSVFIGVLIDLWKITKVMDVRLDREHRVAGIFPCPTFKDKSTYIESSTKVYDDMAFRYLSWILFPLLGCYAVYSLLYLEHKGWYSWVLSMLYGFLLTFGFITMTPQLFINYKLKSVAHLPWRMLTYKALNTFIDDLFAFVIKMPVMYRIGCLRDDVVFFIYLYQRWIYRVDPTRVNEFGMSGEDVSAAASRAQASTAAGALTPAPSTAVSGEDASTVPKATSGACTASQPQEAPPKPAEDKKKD
UniProt Q8R4H2: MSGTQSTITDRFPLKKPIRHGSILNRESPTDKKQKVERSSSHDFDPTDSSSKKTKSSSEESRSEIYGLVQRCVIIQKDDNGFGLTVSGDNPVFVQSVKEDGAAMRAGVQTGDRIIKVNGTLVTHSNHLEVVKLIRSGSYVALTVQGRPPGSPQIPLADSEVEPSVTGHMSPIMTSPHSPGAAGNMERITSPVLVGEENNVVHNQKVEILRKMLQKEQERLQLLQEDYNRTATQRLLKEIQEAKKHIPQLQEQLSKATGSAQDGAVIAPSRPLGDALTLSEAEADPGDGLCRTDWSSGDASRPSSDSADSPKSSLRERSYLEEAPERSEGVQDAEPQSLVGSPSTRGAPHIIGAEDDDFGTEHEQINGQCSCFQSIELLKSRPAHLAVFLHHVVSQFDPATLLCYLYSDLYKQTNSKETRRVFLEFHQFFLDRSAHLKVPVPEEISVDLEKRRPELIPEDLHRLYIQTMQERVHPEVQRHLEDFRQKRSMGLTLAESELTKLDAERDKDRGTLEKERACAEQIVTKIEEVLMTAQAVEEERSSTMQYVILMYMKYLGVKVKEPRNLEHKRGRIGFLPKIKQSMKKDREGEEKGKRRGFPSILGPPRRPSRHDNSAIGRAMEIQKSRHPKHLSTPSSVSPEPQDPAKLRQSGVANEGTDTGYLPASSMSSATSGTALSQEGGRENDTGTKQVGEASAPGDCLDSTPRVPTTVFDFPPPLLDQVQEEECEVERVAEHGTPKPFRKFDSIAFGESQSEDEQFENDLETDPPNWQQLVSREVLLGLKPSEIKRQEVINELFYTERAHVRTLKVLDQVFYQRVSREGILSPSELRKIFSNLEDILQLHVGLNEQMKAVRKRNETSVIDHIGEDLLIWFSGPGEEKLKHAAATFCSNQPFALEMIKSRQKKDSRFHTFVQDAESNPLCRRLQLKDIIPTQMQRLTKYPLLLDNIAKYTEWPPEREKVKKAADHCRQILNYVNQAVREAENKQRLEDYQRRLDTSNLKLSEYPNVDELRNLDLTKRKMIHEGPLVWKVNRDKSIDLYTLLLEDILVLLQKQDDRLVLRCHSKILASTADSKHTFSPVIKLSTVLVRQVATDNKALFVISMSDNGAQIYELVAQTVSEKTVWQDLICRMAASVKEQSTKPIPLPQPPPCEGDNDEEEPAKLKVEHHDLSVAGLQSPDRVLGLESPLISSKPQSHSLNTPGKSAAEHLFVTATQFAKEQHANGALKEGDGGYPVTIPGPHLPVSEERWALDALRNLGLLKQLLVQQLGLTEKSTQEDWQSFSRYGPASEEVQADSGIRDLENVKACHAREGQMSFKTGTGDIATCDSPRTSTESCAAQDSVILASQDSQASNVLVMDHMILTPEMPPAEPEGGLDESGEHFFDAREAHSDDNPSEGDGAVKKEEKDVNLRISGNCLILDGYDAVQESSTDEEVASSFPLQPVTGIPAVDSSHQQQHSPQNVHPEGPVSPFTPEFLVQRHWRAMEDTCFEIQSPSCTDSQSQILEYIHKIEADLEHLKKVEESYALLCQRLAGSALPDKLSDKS
UniProt Q8VE91: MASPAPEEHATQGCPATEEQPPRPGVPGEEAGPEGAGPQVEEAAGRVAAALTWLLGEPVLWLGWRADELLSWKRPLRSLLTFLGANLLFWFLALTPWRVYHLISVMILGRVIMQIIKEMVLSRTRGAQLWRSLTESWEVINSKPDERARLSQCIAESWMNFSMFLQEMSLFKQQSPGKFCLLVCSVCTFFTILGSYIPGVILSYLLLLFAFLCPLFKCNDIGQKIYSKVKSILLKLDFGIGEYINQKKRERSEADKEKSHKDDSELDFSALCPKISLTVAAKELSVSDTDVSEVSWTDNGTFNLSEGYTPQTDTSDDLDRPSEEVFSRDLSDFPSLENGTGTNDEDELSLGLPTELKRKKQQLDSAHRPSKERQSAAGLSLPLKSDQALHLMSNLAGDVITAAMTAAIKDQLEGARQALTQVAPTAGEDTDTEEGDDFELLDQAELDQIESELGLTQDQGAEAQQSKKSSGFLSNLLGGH
UniProt Q8R4D1: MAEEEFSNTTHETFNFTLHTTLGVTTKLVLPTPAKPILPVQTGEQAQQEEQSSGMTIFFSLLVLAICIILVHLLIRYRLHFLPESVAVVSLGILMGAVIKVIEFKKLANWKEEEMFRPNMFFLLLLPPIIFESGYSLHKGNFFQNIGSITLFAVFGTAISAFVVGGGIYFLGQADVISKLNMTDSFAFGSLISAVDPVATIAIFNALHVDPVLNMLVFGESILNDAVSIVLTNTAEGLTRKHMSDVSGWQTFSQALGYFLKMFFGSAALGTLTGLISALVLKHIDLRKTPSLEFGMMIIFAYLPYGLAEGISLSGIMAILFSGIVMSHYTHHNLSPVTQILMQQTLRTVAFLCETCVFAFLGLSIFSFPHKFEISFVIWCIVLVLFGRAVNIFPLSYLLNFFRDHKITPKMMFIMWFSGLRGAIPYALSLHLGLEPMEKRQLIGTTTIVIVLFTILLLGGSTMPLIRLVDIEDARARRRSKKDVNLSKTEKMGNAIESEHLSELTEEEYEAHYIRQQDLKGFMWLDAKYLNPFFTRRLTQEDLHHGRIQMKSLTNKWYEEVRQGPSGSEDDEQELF
UniProt Q8R3Q2: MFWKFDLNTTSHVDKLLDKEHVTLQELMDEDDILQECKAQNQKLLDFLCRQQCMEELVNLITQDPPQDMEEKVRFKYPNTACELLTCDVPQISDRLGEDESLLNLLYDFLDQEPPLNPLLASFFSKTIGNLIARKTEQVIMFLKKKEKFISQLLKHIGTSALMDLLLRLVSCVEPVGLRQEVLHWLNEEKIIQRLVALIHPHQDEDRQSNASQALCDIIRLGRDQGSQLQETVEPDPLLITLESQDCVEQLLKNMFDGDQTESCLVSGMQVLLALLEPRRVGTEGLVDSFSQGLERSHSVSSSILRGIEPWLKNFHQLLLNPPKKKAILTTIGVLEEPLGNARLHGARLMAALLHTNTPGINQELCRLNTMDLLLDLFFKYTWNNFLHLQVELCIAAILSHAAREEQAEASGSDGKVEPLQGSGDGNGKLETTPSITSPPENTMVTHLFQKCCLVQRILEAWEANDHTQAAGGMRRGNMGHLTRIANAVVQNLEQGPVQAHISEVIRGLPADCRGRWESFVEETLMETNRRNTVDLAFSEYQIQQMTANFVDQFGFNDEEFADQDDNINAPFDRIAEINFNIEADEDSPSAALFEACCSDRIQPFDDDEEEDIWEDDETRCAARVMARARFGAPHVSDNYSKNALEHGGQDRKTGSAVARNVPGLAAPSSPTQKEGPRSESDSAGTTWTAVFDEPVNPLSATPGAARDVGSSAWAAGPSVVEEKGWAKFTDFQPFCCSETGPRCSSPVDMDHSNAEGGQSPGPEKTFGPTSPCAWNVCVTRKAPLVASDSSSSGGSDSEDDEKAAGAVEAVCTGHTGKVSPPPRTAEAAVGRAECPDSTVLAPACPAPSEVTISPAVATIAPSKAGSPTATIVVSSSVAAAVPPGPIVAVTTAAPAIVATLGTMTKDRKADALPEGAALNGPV
UniProt Q8R4U6: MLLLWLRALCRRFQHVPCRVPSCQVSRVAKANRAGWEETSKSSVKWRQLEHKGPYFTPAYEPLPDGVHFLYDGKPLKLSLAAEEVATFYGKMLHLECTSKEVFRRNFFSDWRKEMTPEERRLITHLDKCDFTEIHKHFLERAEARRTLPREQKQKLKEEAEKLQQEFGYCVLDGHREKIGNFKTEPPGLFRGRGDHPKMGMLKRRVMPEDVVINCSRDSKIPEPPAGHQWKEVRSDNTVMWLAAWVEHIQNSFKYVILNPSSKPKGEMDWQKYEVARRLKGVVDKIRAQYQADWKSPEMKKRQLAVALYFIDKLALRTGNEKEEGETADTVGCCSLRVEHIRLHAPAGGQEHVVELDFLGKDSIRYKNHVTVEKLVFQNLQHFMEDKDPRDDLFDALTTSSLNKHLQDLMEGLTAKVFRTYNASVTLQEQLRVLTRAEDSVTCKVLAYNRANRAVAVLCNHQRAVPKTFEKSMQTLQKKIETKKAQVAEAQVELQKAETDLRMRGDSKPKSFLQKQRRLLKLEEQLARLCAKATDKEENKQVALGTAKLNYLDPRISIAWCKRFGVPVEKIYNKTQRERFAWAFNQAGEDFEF

| Target | log2 fold change |
| --- | --- |
| UniProt Q8VEF1 (peptide sequence: LLINSVFHMGAER, peptide start residue: 372) | 0.439 |
| UniProt Q8R3F9 (peptide sequence: VRPLVYTLR, peptide start residue: 409) | 0.61 |
| UniProt Q8VED2 (peptide sequence: LLHTISVPALFR, peptide start residue: 172) | 0.141 |
| UniProt Q8R4T1 (peptide sequence: VKGNPEDSCASEAPGNSPK, peptide start residue: 100) | 0.349 |
| UniProt Q8R5J9 (peptide sequence: DISKWNNR, peptide start residue: 28) | 0.341 |
| UniProt Q8VDR9 (peptide sequence: INSLTFKK, peptide start residue: 1339) | 0.41 |
| UniProt Q8VDM6 (peptide sequence: LKVNELR, peptide start residue: 6) | 0.0902 |
| UniProt Q8VE52 (peptide sequence: ISPGASHVNSK, peptide start residue: 352) | -0.251 |
| UniProt Q8VCN9 (peptide sequence: AEELHQR, peptide start residue: 193) | -0.567 |
| UniProt Q8VC66 (peptide sequence: SLPASPSTSDFR, peptide start residue: 537) | 0.296 |
| UniProt Q8R2T8 (peptide sequence: SNVSVHPDKLK, peptide start residue: 271) | 1.36 |
| UniProt Q8VCF0 (peptide sequence: RPGWVEVFIR, peptide start residue: 65) | 0.456 |
| UniProt Q8R3J4 (peptide sequence: IEKHPDAANLLLR, peptide start residue: 164) | -0.438 |
| UniProt Q8VEA4 (peptide sequence: SYCRQEGKDR, peptide start residue: 2) | -0.496 |
| UniProt Q8VCB2 (peptide sequence: GIHFSIVSPR, peptide start residue: 177) | 0.355 |
| UniProt Q8VCT4 (peptide sequence: QKTEDELLETSLK, peptide start residue: 287) | -0.416 |
| UniProt Q8VD58 (peptide sequence: LFESSEHINDTSNLK, peptide start residue: 292) | -0.341 |
| UniProt Q8VCF1 (peptide sequence: PIQPFDQR, peptide start residue: 2) | -0.053 |

| Target | log2 fold change |
| --- | --- |
| UniProt Q8VBZ3 (peptide sequence: VAGIFPCPTFK, peptide start residue: 448) | 0.236 |
| UniProt Q8R4H2 (peptide sequence: HTFSPVIK, peptide start residue: 1074) | 0.445 |
| UniProt Q8VCH5 (peptide sequence: GAQPVEDVK, peptide start residue: 169) | -0.132 |
| UniProt Q8VDS4 (peptide sequence: IQSLPDLSR, peptide start residue: 283) | 0.346 |
| UniProt Q8R4E9 (peptide sequence: ARPPAEPGSDQPAPLAR, peptide start residue: 48) | -0.147 |
| UniProt Q8R2U0 (peptide sequence: DLIHDVSFDFHGR, peptide start residue: 13) | -0.312 |
| UniProt Q8VCH7 (peptide sequence: FGVVGFHESLSHELK, peptide start residue: 215) | 0.174 |
| UniProt Q8R307 (peptide sequence: KLAGLKPTER, peptide start residue: 476) | 0.464 |
| UniProt Q8VE91 (peptide sequence: SHKDDSELDFSALCPK, peptide start residue: 259) | 0.175 |
| UniProt Q8VDS7 (peptide sequence: ALEEETNER, peptide start residue: 89) | 0.151 |
| UniProt Q8R2Y8 (peptide sequence: SHLGMFPQNSTSEANR, peptide start residue: 35) | 0.12 |
| UniProt Q8VDN2 (peptide sequence: DMDELKK, peptide start residue: 31) | -0.156 |
| UniProt Q8R4D1 (peptide sequence: GFMWLDAK, peptide start residue: 521) | 0.185 |
| UniProt Q8VC56 (peptide sequence: VLELSCPK, peptide start residue: 228) | -0.222 |
| UniProt Q8R3Q2 (peptide sequence: LLDFLCR, peptide start residue: 44) | -0.242 |
| UniProt Q8VEG0 (peptide sequence: TVQAQASQTLIK, peptide start residue: 261) | 0.205 |
| UniProt Q8R4U6 (peptide sequence: YVILNPSSKPK, peptide start residue: 255) | 0.756 |
| UniProt Q8VDC1 (peptide sequence: FQLSAEIMDHQNR, peptide start residue: 964) | 0.383 |

Three entries from above, as labelled records.
UniProt Q8R3F9 (peptide sequence: VRPLVYTLR, peptide start residue: 409)
  log2 fold change: 0.61
UniProt Q8VED2 (peptide sequence: LLHTISVPALFR, peptide start residue: 172)
  log2 fold change: 0.141
UniProt Q8R4T1 (peptide sequence: VKGNPEDSCASEAPGNSPK, peptide start residue: 100)
  log2 fold change: 0.349
